# Source: PubChem BioAssay AID2442 (Broad Institute, 2010)
# The list shows a part of the results. Results with a measured potency or affinity are listed apart. Where no call is shown, the source marks the result inconclusive.
# Assay: PubChem AID 2442
# Details: H4 cells, SNCA 5'UTR luciferase translation, luminescence; at 6 µM (top of the series)
row,Compound,activation
1,CCc1ccc(CNC(=O)Cc2ccc(NC(=O)C3=C(C)OCCS3)cc2)cc1,-15.5%
2,CCOC(=O)c1[nH]c(C)c(C(=O)N2CCc3ccccc32)c1C,-35.1%
